Paper doi:10.1101/2021.11.02.466878
Changes are numbered by the printed parent chain. In names and notes the source's numbering stands. These are yes or no findings as the source states them, for the method shown. Some binding calls cover weakened binding; strength is not graded here. For part of these data: Tags and fused reporters may be left off the sequences shown.

Sequences of proteins named here, by UniProt entry; tags and fusion partners are left off.
UniProt O94913: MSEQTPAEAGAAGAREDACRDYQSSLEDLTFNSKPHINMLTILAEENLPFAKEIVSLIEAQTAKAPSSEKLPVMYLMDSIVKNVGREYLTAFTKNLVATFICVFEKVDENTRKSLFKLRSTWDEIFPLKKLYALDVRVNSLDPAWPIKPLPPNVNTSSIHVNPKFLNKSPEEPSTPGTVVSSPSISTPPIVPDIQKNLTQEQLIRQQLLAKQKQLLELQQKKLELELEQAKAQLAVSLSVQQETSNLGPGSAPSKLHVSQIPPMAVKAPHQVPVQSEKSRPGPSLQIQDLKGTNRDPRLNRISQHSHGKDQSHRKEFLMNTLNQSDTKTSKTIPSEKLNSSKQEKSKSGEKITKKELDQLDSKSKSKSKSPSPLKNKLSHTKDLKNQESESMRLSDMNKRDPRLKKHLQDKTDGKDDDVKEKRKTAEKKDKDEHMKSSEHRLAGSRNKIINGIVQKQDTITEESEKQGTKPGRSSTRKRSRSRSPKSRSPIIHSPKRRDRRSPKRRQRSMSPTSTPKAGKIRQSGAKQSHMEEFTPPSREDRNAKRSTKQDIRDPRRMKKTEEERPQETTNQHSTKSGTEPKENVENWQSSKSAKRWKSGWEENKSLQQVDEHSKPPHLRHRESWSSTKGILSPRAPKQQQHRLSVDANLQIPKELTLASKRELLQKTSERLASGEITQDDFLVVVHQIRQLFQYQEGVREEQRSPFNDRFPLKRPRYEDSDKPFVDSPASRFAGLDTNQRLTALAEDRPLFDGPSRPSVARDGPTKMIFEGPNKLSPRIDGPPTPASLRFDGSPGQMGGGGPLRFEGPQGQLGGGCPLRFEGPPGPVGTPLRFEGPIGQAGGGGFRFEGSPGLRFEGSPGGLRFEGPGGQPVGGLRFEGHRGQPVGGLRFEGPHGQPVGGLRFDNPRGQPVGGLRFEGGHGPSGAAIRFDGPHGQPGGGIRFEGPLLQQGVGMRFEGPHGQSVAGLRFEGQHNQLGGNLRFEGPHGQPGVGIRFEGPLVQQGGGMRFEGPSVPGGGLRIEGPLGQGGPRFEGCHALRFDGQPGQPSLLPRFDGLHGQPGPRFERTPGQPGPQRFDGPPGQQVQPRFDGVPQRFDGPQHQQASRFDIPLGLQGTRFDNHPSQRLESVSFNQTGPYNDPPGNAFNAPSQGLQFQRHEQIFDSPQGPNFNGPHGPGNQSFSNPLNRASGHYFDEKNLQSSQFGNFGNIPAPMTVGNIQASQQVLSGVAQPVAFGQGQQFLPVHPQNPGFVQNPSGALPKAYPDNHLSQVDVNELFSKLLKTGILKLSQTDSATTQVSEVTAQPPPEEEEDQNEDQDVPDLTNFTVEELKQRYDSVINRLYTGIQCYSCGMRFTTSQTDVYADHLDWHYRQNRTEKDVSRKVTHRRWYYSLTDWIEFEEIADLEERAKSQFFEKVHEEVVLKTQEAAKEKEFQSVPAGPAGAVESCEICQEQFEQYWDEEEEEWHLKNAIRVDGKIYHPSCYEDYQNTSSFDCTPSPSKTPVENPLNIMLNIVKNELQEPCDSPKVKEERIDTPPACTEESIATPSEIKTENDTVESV

Assays:
[1] = target: T1, RBBP6_(1-335), FLAG-tagged, purified (human) (UniProt Q7Z6E9); test: cross-linking
T1 sequence: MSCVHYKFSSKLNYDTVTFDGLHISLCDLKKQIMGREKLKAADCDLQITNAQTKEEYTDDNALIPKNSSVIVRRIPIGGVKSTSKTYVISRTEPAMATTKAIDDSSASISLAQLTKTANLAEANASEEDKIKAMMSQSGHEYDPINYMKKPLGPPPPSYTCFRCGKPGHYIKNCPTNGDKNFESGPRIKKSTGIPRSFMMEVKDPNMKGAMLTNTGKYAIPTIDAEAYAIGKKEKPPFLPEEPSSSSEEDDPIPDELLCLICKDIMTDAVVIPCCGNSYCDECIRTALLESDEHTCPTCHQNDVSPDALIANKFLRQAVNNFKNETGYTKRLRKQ

FLAG-tagged CstF64τ = target: T2, FLAG-tagged CstF64τ (UniProt Q9H0L4); test: pull-down
T2 sequence: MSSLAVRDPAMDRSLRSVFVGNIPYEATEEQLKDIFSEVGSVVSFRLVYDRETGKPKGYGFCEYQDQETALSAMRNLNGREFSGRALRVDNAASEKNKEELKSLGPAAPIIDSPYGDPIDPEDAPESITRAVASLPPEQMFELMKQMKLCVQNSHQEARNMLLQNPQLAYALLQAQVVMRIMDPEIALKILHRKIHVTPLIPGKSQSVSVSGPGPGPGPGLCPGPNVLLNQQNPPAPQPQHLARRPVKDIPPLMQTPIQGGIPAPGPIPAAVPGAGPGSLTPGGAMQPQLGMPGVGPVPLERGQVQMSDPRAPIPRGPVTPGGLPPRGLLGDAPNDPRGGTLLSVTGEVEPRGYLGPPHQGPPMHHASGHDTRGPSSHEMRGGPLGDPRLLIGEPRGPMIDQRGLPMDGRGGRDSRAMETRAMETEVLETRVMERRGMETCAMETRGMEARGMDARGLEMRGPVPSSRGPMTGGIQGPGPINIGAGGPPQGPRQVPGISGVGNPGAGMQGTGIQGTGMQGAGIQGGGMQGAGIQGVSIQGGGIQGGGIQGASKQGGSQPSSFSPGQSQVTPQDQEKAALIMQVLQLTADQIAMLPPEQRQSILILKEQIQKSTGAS

hPcf11 (human) = hPcf11 (human) (UniProt O94913); test: co-purification

B1: symplekin, as subunit of purified recombinant CPSF or mCF3 (protein, UniProt Q92797 1-1274)
chain: MASGSGDSVTRRSVASQFFTQEEGPGIDGMTTSERVVDLLNQAALITNDSKITVLKQVQELIINKDPTLLDNFLDEIIAFQADKSIEVRKFVIGFIEEACKRDIELLLKLIANLNMLLRDENVNVVKKAILTMTQLYKVALQWMVKSRVISELQEACWDMVSAMAGDIILLLDSDNDGIRTHAIKFVEGLIVTLSPRMADSEIPRRQEHDISLDRIPRDHPYIQYNVLWEEGKAALEQLLKFMVHPAISSINLTTALGSLANIARQRPMFMSEVIQAYETLHANLPPTLAKSQVSSVRKNLKLHLLSVLKHPASLEFQAQITTLLVDLGTPQAEIARNMPSSKDTRKRPRDDSDSTLKKMKLEPNLGEDDEDKDLEPGPSGTSKASAQISGQSDTDITAEFLQPLLTPDNVANLVLISMVYLPEAMPASFQAIYTPVESAGTEAQIKHLARLMATQMTAAGLGPGVEQTKQCKEEPKEEKVVKTESVLIKRRLSAQGQAISVVGSLSSMSPLEEEAPQAKRRPEPIIPVTQPRLAGAGGRKKIFRLSDVLKPLTDAQVEAMKLGAVKRILRAEKAVACSGAAQVRIKILASLVTQFNSGLKAEVLSFILEDVRARLDLAFAWLYQEYNAYLAAGASGSLDKYEDCLIRLLSGLQEKPDQKDGIFTKVVLEAPLITESALEVVRKYCEDESRTYLGMSTLRDLIFKRPSRQFQYLHVLLDLSSHEKDKVRSQALLFIKRMYEKEQLREYVEKFALNYLQLLVHPNPPSVLFGADKDTEVAAPWTEETVKQCLYLYLALLPQNHKLIHELAAVYTEAIADIKRTVLRVIEQPIRGMGMNSPELLLLVENCPKGAETLVTRCLHSLTDKVPPSPELVKRVRDLYHKRLPDVRFLIPVLNGLEKKEVIQALPKLIKLNPIVVKEVFNRLLGTQHGEGNSALSPLNPGELLIALHNIDSVKCDMKSIIKATNLCFAERNVYTSEVLAVVMQQLMEQSPLPMLLMRTVIQSLTMYPRLGGFVMNILSRLIMKQVWKYPKVWEGFIKCCQRTKPQSFQVILQLPPQQLGAVFDKCPELREPLLAHVRSFTPHQQAHIPNSIMTILEASGKQEPEAKEAPAGPLEEDDLEPLTLAPAPAPRPPQDLIGLRLAQEKALKRQLEEEQKLKPGGVGAPSSSSPSPSPSARPGPPPSEEAMDFREEGPECETPGIFISMDDDSGLTEAALLDSSLEGPLPKETAAGGLTLKEERSPQTLAPVGEDAMKTPSPAAEDAREPEAKGNS
B1 was tested, and the binding [1] was “binds”.

B2: CstF77 (protein, UniProt Q12996 1-717)
chain: MSGDGATEQAAEYVPEKVKKAEKKLEENPYDLDAWSILIREAQNQPIDKARKTYERLVAQFPSSGRFWKLYIEAEIKAKNYDKVEKLFQRCLMKVLHIDLWKCYLSYVRETKGKLPSYKEKMAQAYDFALDKIGMEIMSYQIWVDYINFLKGVEAVGSYAENQRITAVRRVYQRGCVNPMINIEQLWRDYNKYEEGINIHLAKKMIEDRSRDYMNARRVAKEYETVMKGLDRNAPSVPPQNTPQEAQQVDMWKKYIQWEKSNPLRTEDQTLITKRVMFAYEQCLLVLGHHPDIWYEAAQYLEQSSKLLAEKGDMNNAKLFSDEAANIYERAISTLLKKNMLLYFAYADYEESRMKYEKVHSIYNRLLAIEDIDPTLVYIQYMKFARRAEGIKSGRMIFKKAREDTRTRHHVYVTAALMEYYCSKDKSVAFKIFELGLKKYGDIPEYVLAYIDYLSHLNEDNNTRVLFERVLTSGSLPPEKSGEIWARFLAFESNIGDLASILKVEKRRFTAFKEEYEGKETALLVDRYKFMDLYPCSASELKALGYKDVSRAKLAAIIPDPVVAPSIVPVLKDEVDRKPEYPKPDTQQMIPFQPRHLAPPGLHPVPGGVFPVPPAAVVLMKLLPPPICFQGPFVQVDELMEIFRRCKIPNTVEEAVRIITGGAPELAVEGNGPVESNAVLTKAVKRPNEDSDEDEEKGAVVPPVHDIYRARQQKRIR
B2 was tested, and the binding (FLAG-tagged CstF64τ) was “binds”.

B3: CstF50 (protein, UniProt Q05048 1-431)
chain: MYRTKVGLKDRQQLYKLIISQLLYDGYISIANGLINEIKPQSVCAPSEQLLHLIKLGMENDDTAVQYAIGRSDTVAPGTGIDLEFDADVQTMSPEASEYETCYVTSHKGPCRVATYSRDGQLIATGSADASIKILDTERMLAKSAMPIEVMMNETAQQNMENHPVIRTLYDHVDEVTCLAFHPTEQILASGSRDYTLKLFDYSKPSAKRAFKYIQEAEMLRSISFHPSGDFILVGTQHPTLRLYDINTFQCFVSCNPQDQHTDAICSVNYNSSANMYVTGSKDGCIKLWDGVSNRCITTFEKAHDGAEVCSAIFSKNSKYILSSGKDSVAKLWEISTGRTLVRYTGAGLSGRQVHRTQAVFNHTEDYVLLPDERTISLCCWDSRTAERRNLLSLGHNNIVRCIVHSPTNPGFMTCSDDFRARFWYRRSTTD
For B3, the binding (FLAG-tagged CstF64τ) was “binds”.

B4: hClp1 R288A, R293K double mutant (enzyme, UniProt Q92989 1-425)
chain: MGEEANDDKKPTTKFELERETELRFEVEASQSVQLELLTGMAEIFGTELTRNKKFTFDAGAKVAVFTWHGCSVQLSGRTEVAYVSKDTPMLLYLNTHTALEQMRRQAEKEEERGPRVMVVGPTDVGKSTVCRLLLNYAVRLGRRPTYVELDVGQGSVSIPGTMGALYIERPADVEEGFSIQAPLVYHFGSTTPGTNIKLYNKITSRLADVFNQRCEVNRRASVSGCVINTCGWVKGSGYQALVHAASAFEVDVVVVLDQERLYNELKRDLPHFVRTVLLPKSGGVVEASKDFKRECRDERIREYFYGFRGCFYPHAFNVKFSDVKIYKVGAPTIPDSCLPLGMSQEDNQLKLVPVTPGRDMVHHLLSVSTAEGTEENLSETSVAGFIVVTSVDLEHQVFTVLSPAPRPLPKNFLLIMDIRFMDLK
In the case of B4, the binding (hPcf11 (human)) is reported as “binds”.

B5: hClp1 E22A (enzyme, UniProt Q92989 1-425)
chain: B4 chain with E22A, A288R, K293R
In the case of B5, the binding (hPcf11 (human)) is reported as “binds”.

B6: hClp1 E22Q (enzyme, UniProt Q92989 1-425)
chain: B4 chain with E22Q, A288R, K293R
In the case of B6, the binding (hPcf11 (human)) is reported as “binds”.
